For assay [1], the target named is PRMT5^null (G367A/R368A) with a split Venus-EYFP fragment (human) (UniProt O14744). Briefly: split reporter.
The target of assay [2] is CDK4 (NanoLuc-based LUMIER co-IP construct) (human) (UniProt P11802). Kind of assay: co-IP.
In assay [3] the target is PRMT5 (yeast two-hybrid fusion) (human) (UniProt O14744). Briefly: two-hybrid.
Assay [4] deals with T1, CDK4 (NanoLuc-based LUMIER co-IP construct) (human), P11802.
T1 chain: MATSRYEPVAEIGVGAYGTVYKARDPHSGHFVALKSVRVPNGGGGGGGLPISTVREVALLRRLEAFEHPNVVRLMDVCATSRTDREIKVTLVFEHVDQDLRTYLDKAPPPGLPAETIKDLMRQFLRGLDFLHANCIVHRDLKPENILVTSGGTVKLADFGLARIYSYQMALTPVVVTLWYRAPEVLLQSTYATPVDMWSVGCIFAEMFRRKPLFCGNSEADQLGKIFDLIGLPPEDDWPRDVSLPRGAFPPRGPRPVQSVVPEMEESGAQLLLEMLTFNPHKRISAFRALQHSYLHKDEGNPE
Kind of assay: co-IP. Particulars: remark: other sources report otherwise.

Chains of the proteins cited; added tags and fusions are not shown. Lines headed by an entry give the natural chain unless they say otherwise; changes in a name come on top.
UniProt O14744: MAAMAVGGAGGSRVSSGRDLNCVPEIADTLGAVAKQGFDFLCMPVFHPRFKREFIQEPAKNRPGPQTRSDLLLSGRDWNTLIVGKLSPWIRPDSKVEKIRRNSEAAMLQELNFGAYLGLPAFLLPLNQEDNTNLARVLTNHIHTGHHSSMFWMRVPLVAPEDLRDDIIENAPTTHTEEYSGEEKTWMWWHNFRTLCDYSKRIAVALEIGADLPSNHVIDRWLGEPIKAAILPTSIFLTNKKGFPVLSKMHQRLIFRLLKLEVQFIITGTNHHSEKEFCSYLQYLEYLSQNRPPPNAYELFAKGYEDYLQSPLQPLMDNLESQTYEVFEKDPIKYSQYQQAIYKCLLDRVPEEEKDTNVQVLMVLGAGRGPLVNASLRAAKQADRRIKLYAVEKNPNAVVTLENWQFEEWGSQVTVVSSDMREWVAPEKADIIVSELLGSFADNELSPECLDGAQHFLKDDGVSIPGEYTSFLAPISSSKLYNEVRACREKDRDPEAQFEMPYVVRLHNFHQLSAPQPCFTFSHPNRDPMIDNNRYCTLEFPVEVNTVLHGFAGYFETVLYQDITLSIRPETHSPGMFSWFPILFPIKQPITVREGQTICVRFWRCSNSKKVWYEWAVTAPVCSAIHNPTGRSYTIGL
UniProt P30281: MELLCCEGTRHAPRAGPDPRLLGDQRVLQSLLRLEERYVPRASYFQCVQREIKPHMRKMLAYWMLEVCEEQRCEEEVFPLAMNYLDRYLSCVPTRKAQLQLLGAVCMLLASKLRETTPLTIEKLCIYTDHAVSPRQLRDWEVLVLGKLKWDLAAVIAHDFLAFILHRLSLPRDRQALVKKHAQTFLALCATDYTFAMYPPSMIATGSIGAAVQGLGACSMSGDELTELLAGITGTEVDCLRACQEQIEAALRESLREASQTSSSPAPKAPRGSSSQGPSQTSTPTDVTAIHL
UniProt P53350: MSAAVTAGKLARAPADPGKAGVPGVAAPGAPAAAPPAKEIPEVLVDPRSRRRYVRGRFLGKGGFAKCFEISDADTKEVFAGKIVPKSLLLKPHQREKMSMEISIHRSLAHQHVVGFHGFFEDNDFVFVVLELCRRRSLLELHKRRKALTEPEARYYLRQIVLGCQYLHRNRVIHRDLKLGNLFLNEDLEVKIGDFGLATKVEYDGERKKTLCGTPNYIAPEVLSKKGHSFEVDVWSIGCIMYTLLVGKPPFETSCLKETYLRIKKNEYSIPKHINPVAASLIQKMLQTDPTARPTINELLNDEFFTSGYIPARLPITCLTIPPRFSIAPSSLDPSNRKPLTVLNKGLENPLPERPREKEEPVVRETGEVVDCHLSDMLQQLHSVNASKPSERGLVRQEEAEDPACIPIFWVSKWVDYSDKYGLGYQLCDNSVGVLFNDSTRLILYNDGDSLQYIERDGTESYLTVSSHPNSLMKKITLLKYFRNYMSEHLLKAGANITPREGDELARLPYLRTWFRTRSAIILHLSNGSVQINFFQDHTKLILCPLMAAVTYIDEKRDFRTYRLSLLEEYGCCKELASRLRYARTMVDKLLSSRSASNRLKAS
UniProt Q96GD4: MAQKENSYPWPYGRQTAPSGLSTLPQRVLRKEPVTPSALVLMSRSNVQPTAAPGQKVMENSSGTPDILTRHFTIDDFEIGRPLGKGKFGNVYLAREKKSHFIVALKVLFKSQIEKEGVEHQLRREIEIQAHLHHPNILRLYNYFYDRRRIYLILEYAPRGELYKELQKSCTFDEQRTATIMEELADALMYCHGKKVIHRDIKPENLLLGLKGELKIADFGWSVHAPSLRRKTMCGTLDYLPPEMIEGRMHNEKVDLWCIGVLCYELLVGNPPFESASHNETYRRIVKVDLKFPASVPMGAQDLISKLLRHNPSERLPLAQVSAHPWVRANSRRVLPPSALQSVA

No constants are given. Whether binding was seen depends on the method and setting. For some assays here: In cells and extracts the contact can be indirect. Some results given as binding are weak or reduced against the parent protein; the word gives no strength. For some assays here: Sequences can lack the tags named with a protein.

Take “PRMT5^null (G367A/R368A) with a split Venus-EYFP fragment (from UniProt O14744 1-637) (enzyme)”: the binding entry in assay [1] is recorded as “binds”.

For the molecule “CCND3 (NanoLuc-based LUMIER co-IP construct) (from UniProt P30281 1-292)”, the binding entry in assay [2] is recorded as “binds”. “PLK1 (yeast two-hybrid fusion) (from UniProt P53350 1-603) (enzyme)”: the binding entry in assay [3] is listed as “binds”. Same read-out and setting: next, “AURKB (yeast two-hybrid fusion) (from UniProt Q96GD4 1-344) (enzyme)”: “binds”.

B1: CDKN2B, P42772 1-138 (protein)
chain: MREENKGMPSGGGSDEGLASAAARGLVEKVRQLLEAGADPNGVNRFGRRAIQVMMMGSARVAELLLLHGAEPNCADPATLTRPVHDAAREGFLDTLVVLHRAGARLDVRDAWGRLPVDLAEERGHRDVAGYLRTATGD
Turning to B1, the binding result in assay [4] is on record as “binds”.

The values are drawn from paper doi:10.64898/2025.12.11.693714.
